Laboratory results from PubChem BioAssay AID540276 (National Center for Advancing Translational Sciences (NCATS), 2011).
Among all 300,000 compounds or so, about 5,400 (1.8%) were called active. Inconclusive means that the source gave no clear call. Such entries were picked first, then a sample of the others. Calls follow the shape of the full dose curve; tested in HEK293 cells. A potency beside an inconclusive call is a rough fit, not a confirmed value.

assay: qHTS for inhibitors of binding or entry into cells for Marburg Virus; conditions: Marburg virus pseudotyped entry inhibition, cell reporter; activity change, negative = inhibition: at 37.8 µM (top of the series) unless noted
% is scaled to controls: 0 for no effect and ±100 for the full control effect; potency is read from the fitted curve at half-maximal effect.

| Structure (SMILES) | Potency | activity change, negative = inhibition |
| --- | --- | --- |
| Cc1cccc(C(=O)Nc2nnc(S(=O)(=O)N(C)Cc3ccco3)s2)c1 | inconclusive: 25.1 µM [activator, single point] |  |
| CCCCN(C(=O)CSc1nnc(Nc2ccc(C)c(C)c2)s1)c1c(N)n(Cc2ccccc2)c(=O)[nH]c1=O | inconclusive: 7.94 µM [inhibitor, partial curve, poor fit] |  |
| Cc1oc(-c2cccc(Cl)c2)nc1CN1CCCC(C(=O)NCc2ccco2)C1 (stereo unspecified) | inconclusive: 18.3 µM [inhibitor, single point] |  |
| CCOC(=O)c1cn(-c2ccccc2CO)c2c(F)c(F)c(F)cc2c1=O | inactive |  |
| COc1cc(SC)ccc1C(=O)Nc1ncc(C)s1 | active: 1.46 µM |  |
| CCN(C(=O)c1cn(C)c(=O)c2cc(OC)c(OC)cc12)c1ccccc1C | inactive |  |
| O=C(Cn1nc(C(F)F)cc1C(F)F)NNC(=S)Nc1ccc([N+](=O)[O-])cc1 | inactive |  |
| COc1ccc(CCNC(=O)CSc2nc(-c3ccc(F)cc3)cc(C(F)(F)F)n2)cc1OC | inactive |  |
| CCSc1nnc2c(n1)OC(CC)N(C(C)=O)c1ccccc1-2 (stereo unspecified) | inactive |  |
| CC(=O)c1c(C)[nH]c(C(=O)OCC(=O)NCCC2=CCCCC2)c1C | inconclusive: 8.91 µM [inhibitor, partial curve, poor fit] |  |
| O=C(/C=C/c1ccc2ccccc2n1)N1CCN(c2ccccc2)CC1 | inconclusive: 7.08 µM [inhibitor, partial curve, poor fit] |  |
| COc1ccc(N2CCN(c3oc(-c4ccco4)nc3C#N)CC2)cc1 | inactive |  |
| Nc1cc(C(=O)OCC(=O)N2CCOCC2)ccc1Cl | inconclusive: 14.1 µM [activator, single point] |  |
| Cc1nnc(SCC(=O)Nc2nnc(SCc3cccc(Br)c3)s2)s1 | inactive |  |
| O=[N+]([O-])c1cc(C(F)(F)F)cc([N+](=O)[O-])c1NCCNC(=S)Nc1ccc(Cl)c(Cl)c1 | inconclusive: 22.4 µM [inhibitor, single point] |  |
| O=C1CC(c2ccccc2)Cc2[nH]c(=O)c(-c3nc(-c4ccc(Cl)cc4)cs3)cc21 (stereo unspecified) | inconclusive: 5.62 µM [inhibitor, single point] |  |
| Cc1nnsc1C(=O)N/N=C/c1ccc2ccccc2c1O | inconclusive: 1.12 µM [inhibitor, full curve, poor fit] |  |
| O=C1CCC(C(=O)OCC(=O)c2ccccc2)N1 (stereo unspecified) |  | inconclusive: 3.93% [activator] [at 46.1 µM] |
| CCN(CC)CCNC(=O)Cc1nn(Cc2ccccc2)c(=O)c2ccccc12 | inactive |  |
| CCCCSc1nc(C)cc(SCC(=O)N/N=C/c2cccc(OC)c2O)n1 | inconclusive: 22.4 µM [inhibitor, partial curve, poor fit] |  |
| CCCc1cc(C(=O)Nc2ccc(Cl)cn2)cs1 | inconclusive: 10 µM [inhibitor, partial curve, poor fit] |  |
| COc1ccc(S(=O)(=O)N2CCCCCC2)cc1C(=O)NCc1cccs1 | inactive |  |
| COc1cc(C(=O)N[C@H](C(=O)NC(C)C23CC4CC(CC(C4)C2)C3)C(C)C)cc(OC)c1OC (stereo partly specified) | inactive |  |
| COc1ccc(C(=O)N/N=C/c2ccc(OC)c(COc3ccc(F)cc3)c2)cc1 | inconclusive: 25.1 µM [inhibitor, single point] |  |

Arranged by length of the SMILES (largest number first): 3 of the compounds above.

| Structure (SMILES) | Potency | activity change, negative = inhibition |
| --- | --- | --- |
| O=C1CC(c2ccccc2)Cc2[nH]c(=O)c(-c3nc(-c4ccc(Cl)cc4)cs3)cc21 (stereo unspecified) | inconclusive: 5.62 µM [inhibitor, single point] |  |
| Cc1cccc(C(=O)Nc2nnc(S(=O)(=O)N(C)Cc3ccco3)s2)c1 | inconclusive: 25.1 µM [activator, single point] |  |
| CCN(CC)CCNC(=O)Cc1nn(Cc2ccccc2)c(=O)c2ccccc12 | inactive |  |

(next part)

| Structure (SMILES) | Potency | activity change, negative = inhibition |
| --- | --- | --- |
| COc1cccc(C2(O)CCN(C(=O)Cc3cccnc3)CC2)c1 | inconclusive: 4.47 µM [inhibitor, single point] |  |
| Cc1cc(NC(=O)C(C)C)ncc1NC(=O)c1ccccn1 | inactive |  |
| COC(=O)c1[nH]c2cc(C)ccc2c1NC(=O)CN1CCOCC1 | inconclusive: 1.41 µM [inhibitor, partial curve, poor fit] |  |
| COc1ccc(/C=N/OCC(=O)Nc2nc3ccccc3s2)cc1 | inactive |  |
| COc1ccc(N=C/C=C2\C=C(c3ccccc3)OC(C)(C)O2)cc1 | inconclusive: 5.8 µM [inhibitor, partial curve, poor fit] |  |
| COc1ccc(N(C)S(=O)(=O)c2cccc(C(=O)N3CCN(c4ccccc4)CC3)c2)cc1 | inconclusive: 35.5 µM [inhibitor, single point] |  |
| CCn1nccc1C(=O)Nc1cccc(C)c1C | inactive |  |
| Cc1cc(C(=O)O)ccc1-n1c(C)ccc1C | inactive |  |
| CCN(CC)C1CC(=O)N(c2ccc(Br)cc2)C1=O (stereo unspecified) | inconclusive: 0.631 µM [inhibitor, full curve, poor fit] |  |
| CCOc1c(Cl)cc(CNC(C)(C)CC(C)(C)C)cc1OC | inconclusive: 10.3 µM [inhibitor, partial curve, poor fit] |  |
| CCOC(=O)c1c[nH]n2c(=O)cc(C)nc12 | inconclusive: 6.31 µM [inhibitor, single point] |  |
| C[N+](C)(C)CCN(Cc1ccc(Cl)cc1)c1ccccn1 | inconclusive: 31.6 µM [activator, single point] |  |
| COc1ccc(-c2cc(C(F)(F)F)nc(SCC(=O)Nc3cc(C)on3)n2)cc1 | inconclusive: 6.31 µM [inhibitor, single point] |  |
| O=C(NC(=S)NCCCN1CCOCC1)c1ccc([N+](=O)[O-])cc1 | inconclusive: 2.51 µM [inhibitor, single point] |  |
| CCOC(=O)C1CCCCN1C(=O)c1oc2c(Cl)cc(C)cc2c1C (stereo unspecified) | inactive |  |
| O=C(c1cc2c(=O)n3ccccc3nc2s1)N1CCN(c2cccc(Cl)c2)CC1 | inconclusive: 25.1 µM [inhibitor, single point] |  |
| Cc1ccc(S(=O)(=O)N2CCOCC2)cc1C(=O)NCc1ccco1 | inconclusive: 0.58 µM [activator, full curve, poor fit] |  |
| CCOC(=O)N1CCN(Cc2cc(=O)oc3ccc(Cl)cc23)CC1 | inactive |  |
| CCOC(=O)C1CCCN(Cc2nc(N)nc(Nc3ccccc3)n2)C1 (stereo unspecified) | inconclusive: 35.5 µM [inhibitor, single point] |  |
| CCOC(=O)CNC(=S)N(Cc1cccs1)C1CCCC1 | inconclusive: 1.03 µM [inhibitor, partial curve, poor fit] |  |
| CCOC(=O)Cc1nnc(NC(=O)C2CCCCC2)s1 | inactive |  |
| Cc1cc(C)nc(NS(=O)(=O)c2ccc(NC(=O)COc3ccc(C(C)(C)C)cc3)cc2)n1 | inconclusive: 0.355 µM [activator, full curve, poor fit] |  |
| COc1ccccc1NC(=O)CSc1ncn(-c2ccccc2)n1 | inconclusive: 14.1 µM [activator, partial curve, poor fit] |  |
| N#Cc1c(SCC(=O)Nc2nccs2)nc2c(c1-c1ccco1)CCCC2 | inconclusive: 17.8 µM [inhibitor, partial curve, poor fit] |  |

Molecules above that contain a tert-butyl group (2):

| Structure (SMILES) | Potency | activity change, negative = inhibition |
| --- | --- | --- |
| CCOc1c(Cl)cc(CNC(C)(C)CC(C)(C)C)cc1OC | inconclusive: 10.3 µM [inhibitor, partial curve, poor fit] |  |
| Cc1cc(C)nc(NS(=O)(=O)c2ccc(NC(=O)COc3ccc(C(C)(C)C)cc3)cc2)n1 | inconclusive: 0.355 µM [activator, full curve, poor fit] |  |

(continued)

| Structure (SMILES) | Potency | activity change, negative = inhibition |
| --- | --- | --- |
| COc1ccccc1-n1c(SCC(=O)N2CCc3ccccc32)nc2c(c1=O)SCC2 | inactive |  |
| O=C(Nc1ccc(Cl)cn1)c1ccc(COCC(F)(F)C(F)F)o1 | inconclusive: 18.3 µM [activator, single point] |  |
| NNC(=O)CSc1c(-c2cccs2)[nH]c2ccccc12 | inconclusive: 3.55 µM [activator, partial curve, poor fit] |  |
| O=C(Nc1ccc(S(=O)(=O)N2CCCCC2)cc1)C1CCN(C(=O)c2ccc(F)cc2)CC1 | inconclusive: 11.2 µM [inhibitor, single point] |  |
| Nc1c(Cl)ncnc1N/N=C/c1ccc2ccccc2n1 | active: 16.4 µM |  |
| O=C(CSc1nc2ccccc2s1)CSc1nc2ccccc2s1 | inactive |  |
| C=CCSc1nnc(NC(=O)CCNC(=O)c2ccco2)s1 | inactive |  |
| COc1ccc(CNC(=O)c2ccc(-c3ccccc3)cc2)cc1OC | inactive |  |
| CCc1cc(C(=O)Nc2ccc(C)cc2Br)cs1 | inconclusive: 2.06 µM [activator, partial curve, poor fit] |  |
| Cc1ccc2nc(SCC(=O)Nc3ccccc3N3CCOCC3)c(C#N)cc2c1 | inconclusive: 2.82 µM [inhibitor, full curve] |  |
| CC(C)c1nc(SCC(=O)Nc2ccc([N+](=O)[O-])cc2Br)n[nH]1 | inconclusive: 17.8 µM [inhibitor, single point] |  |
| COc1cccc(/C=N/Nc2ncnc(N)c2[N+](=O)[O-])c1OC | inconclusive: 8.2 µM [inhibitor, partial curve, poor fit] |  |
| CC(C)C(=O)NC(c1ccccc1)c1cc([N+](=O)[O-])c2cccnc2c1O (stereo unspecified) | inconclusive: 2.24 µM [inhibitor, full curve, poor fit] |  |
| CNc1cc(CSC)nc(SCc2ccc(Cl)cc2Cl)n1 | inconclusive: 29.1 µM [inhibitor, single point] |  |
| O=C(NC1CCCC1)C1CCN(C(=O)c2ccc(Cl)cc2Cl)CC1 | inconclusive: 12.6 µM [inhibitor, partial curve] |  |
| CC(C)N1CCc2c(sc(NC(=O)c3ccc(S(=O)(=O)N4CCOCC4)cc3)c2C#N)C1 | inactive |  |
| O=C(COc1ccc(Cl)cc1)OCc1ccc(Cl)cc1 | inactive |  |
| Oc1ccc(/C=N/Nc2nc(N3CCCCCC3)nc(N3CCCCCC3)n2)c(O)c1 | inconclusive: 28.2 µM [inhibitor, single point] |  |
| CN(C(=O)CCCN1CCCC1=O)C1CCCN(Cc2ccccc2F)C1 (stereo unspecified) | inactive |  |
| CCS(=O)(=O)c1nc(S(=O)(=O)c2ccc(Cl)cc2)c(NCc2ccccc2Cl)s1 | inconclusive: 3.55 µM [inhibitor, partial curve, poor fit] |  |
| CC(=O)N1CC[n+]2c(-c3ccc(Cl)cc3Cl)csc21 | inactive |  |
| Cc1ccc(S(=O)(=O)NC(=O)Nc2ccccc2)cc1 | inactive |  |
| C=CCN1CCN(C(=O)c2c(-c3ccccc3)noc2C)CC1 | inactive |  |
